Assay results as given in publication PMC6872149, “Protein:Protein interactions in the cytoplasmic membrane apparently influencing sugar transport and phosphorylation activities of the e. coli phosphotransferase system” (PLoS ONE, 2019).
These are yes or no findings as the source states them, for the method shown. Some results given as binding are weak or reduced against the parent protein; the word gives no strength. Sequences can lack the tags named with a protein.

By UniProt entry, the sequences of proteins in these tests, tags left out.
UniProt P00550: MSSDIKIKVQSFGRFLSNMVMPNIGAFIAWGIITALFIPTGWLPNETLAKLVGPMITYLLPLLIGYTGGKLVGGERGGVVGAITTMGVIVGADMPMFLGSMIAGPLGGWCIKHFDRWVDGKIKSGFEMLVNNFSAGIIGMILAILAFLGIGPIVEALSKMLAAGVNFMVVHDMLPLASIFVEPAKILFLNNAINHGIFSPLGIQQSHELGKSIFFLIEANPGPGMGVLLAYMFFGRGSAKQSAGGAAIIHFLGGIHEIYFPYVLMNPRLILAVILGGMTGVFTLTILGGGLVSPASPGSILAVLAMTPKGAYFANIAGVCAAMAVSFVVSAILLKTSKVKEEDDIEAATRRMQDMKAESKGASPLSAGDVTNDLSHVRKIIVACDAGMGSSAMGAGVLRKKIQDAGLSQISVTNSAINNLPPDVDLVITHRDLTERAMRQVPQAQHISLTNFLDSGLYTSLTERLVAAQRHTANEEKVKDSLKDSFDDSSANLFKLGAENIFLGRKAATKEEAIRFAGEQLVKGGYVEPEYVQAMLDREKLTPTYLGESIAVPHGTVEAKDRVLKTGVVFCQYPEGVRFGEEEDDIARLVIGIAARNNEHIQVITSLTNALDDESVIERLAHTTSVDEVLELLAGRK

B1: GatC (galactitol PTS Enzyme IIC) fused to the T18 domain (pUT18-gatC) (protein, UniProt P69831 1-451)
chain: MFSEVMRYILDLGPTVMLPIVIIIFSKILGMKAGDCFKAGLHIGIGFVGIGLVIGLMLDSIGPAAKAMAENFDLNLHVVDVGWPGSSPMTWASQIALVAIPIAILVNVAMLLTRMTRVVNVDIWNIWHMTFTGALLHLATGSWMIGMAGVVIHAAFVYKLGDWFARDTRNFFELEGIAIPHGTSAYMGPIAVLVDAIIEKIPGVNRIKFSADDIQRKFGPFGEPVTVGFVMGLIIGILAGYDVKGVLQLAVKTAAVMLLMPRVIKPIMDGLTPIAKQARSRLQAKFGGQEFLIGLDPALLLGHTAVVSASLIFIPLTILIAVCVPGNQVLPFGDLATIGFFVAMAVAVHRGNLFRTLISGVIIMSITLWIATQTIGLHTQLAANAGALKAGGMVASMDQGGSPITWLLIQVFSPQNIPGFIIIGAIYLTGIFMTWRRARGFIKQEKVVLAE
B2: NagE (N-acetylglucosamine PTS Enzyme IIC-IIB-IIA) fused to the T18 domain (pUT18-nagE) (protein, UniProt P09323 1-648)
chain: MNILGFFQRLGRALQLPIAVLPVAALLLRFGQPDLLNVAFIAQAGGAIFDNLALIFAIGVASSWSKDSAGAAALAGAVGYFVLTKAMVTINPEINMGVLAGIITGLVGGAAYNRWSDIKLPDFLSFFGGKRFVPIATGFFCLVLAAIFGYVWPPVQHAIHAGGEWIVSAGALGSGIFGFINRLLIPTGLHQVLNTIAWFQIGEFTNAAGTVFHGDINRFYAGDGTAGMFMSGFFPIMMFGLPGAALAMYFAAPKERRPMVGGMLLSVAVTAFLTGVTEPLEFLFMFLAPLLYLLHALLTGISLFVATLLGIHAGFSFSAGAIDYALMYNLPAASQNVWMLLVMGVIFFAIYFVVFSLVIRMFNLKTPGREDKEDEIVTEEANSNTEEGLTQLATNYIAAVGGTDNLKAIDACITRLRLTVADSARVNDTMCKRLGASGVVKLNKQTIQVIVGAKAESIGDAMKKVVARGPVAAASAEATPATAAPVAKPQAVPNAVSIAELVSPITGDVVALDQVPDEAFASKAVGDGVAVKPTDKIVVSPAAGTIVKIFNTNHAFCLETEKGAEIVVHMGIDTVALEGKGFKRLVEEGAQVSAGQPILEMDLDYLNANARSMISPVVCSNIDDFSGLIIKAQGHIVAGQTPLYEIKK
B3: TreB (trehalose PTS Enzyme IIB-IIC) fused to the T18 domain (pUT18-treB) (protein, UniProt P36672 1-473)
chain: MMSKINQTDIDRLIELVGGRGNIATVSHCITRLRFVLNQPANARPKEIEQLPMVKGCFTNAGQFQVVIGTNVGDYYQALIASTGQAQVDKEQVKKAARHNMKWHEQLISHFAVIFFPLLPALISGGLILGFRNVIGDLPMSNGQTLAQMYPSLQTIYDFLWLIGEAIFFYLPVGICWSAVKKMGGTPILGIVLGVTLVSPQLMNAYLLGQQLPEVWDFGMFSIAKVGYQAQVIPALLAGLALGVIETRLKRIVPDYLYLVVVPVCSLILAVFLAHALIGPFGRMIGDGVAFAVRHLMTGSFAPIGAALFGFLYAPLVITGVHQTTLAIDLQMIQSMGGTPVWPLIALSNIAQGSAVIGIIISSRKHNEREISVPAAISAWLGVTEPAMYGINLKYRFPMLCAMIGSGLAGLLCGLNGVMANGIGVGGLPGILSIQPSYWQVFALAMAIAIIIPIVLTSFIYQRKYRLGTLDIV
B4: FruB (fructose PTS IIA-FPr) fused to the T18 domain (pUT18-fruB) (natural protein, E. coli, UniProt P69811 1-376, looked up)
chain: MFQLSVQDIHPGEKAGDKEEAIRQVAAALVQAGNVAEGYVNGMLAREQQTSTFLGNGIAIPHGTTDTRDQVLKTGVQVFQFPEGVTWGDGQVAYVAIGIAASSDEHLGLLRQLTHVLSDDSVAEQLKSATTAEELRALLMGEKQSEQLKLDNEMLTLDIVASDLLTLQALNAARLKEAGAVDATFVTKAINEQPLNLGQGIWLSDSAEGNLRSAIAVSRAANAFDVDGETAAMLVSVAMNDDQPIAVLKRLADLLLDNKADRLLKADAATLLALLTSDDAPTDDVLSAEFVVRNEHGLHARPGTMLVNTIKQFNSDITVTNLDGTGKPANGRSLMKVVALGVKKGHRLRFTAQGADAEQALKAIGDAIAAGLGEGA
B5: NagE (N-acetylglucosamine PTS Enzyme IIC-IIB-IIA) fused to the T25 domain (pKNT25-nagE) (protein, UniProt P09323 1-648)
chain: MNILGFFQRLGRALQLPIAVLPVAALLLRFGQPDLLNVAFIAQAGGAIFDNLALIFAIGVASSWSKDSAGAAALAGAVGYFVLTKAMVTINPEINMGVLAGIITGLVGGAAYNRWSDIKLPDFLSFFGGKRFVPIATGFFCLVLAAIFGYVWPPVQHAIHAGGEWIVSAGALGSGIFGFINRLLIPTGLHQVLNTIAWFQIGEFTNAAGTVFHGDINRFYAGDGTAGMFMSGFFPIMMFGLPGAALAMYFAAPKERRPMVGGMLLSVAVTAFLTGVTEPLEFLFMFLAPLLYLLHALLTGISLFVATLLGIHAGFSFSAGAIDYALMYNLPAASQNVWMLLVMGVIFFAIYFVVFSLVIRMFNLKTPGREDKEDEIVTEEANSNTEEGLTQLATNYIAAVGGTDNLKAIDACITRLRLTVADSARVNDTMCKRLGASGVVKLNKQTIQVIVGAKAESIGDAMKKVVARGPVAAASAEATPATAAPVAKPQAVPNAVSIAELVSPITGDVVALDQVPDEAFASKAVGDGVAVKPTDKIVVSPAAGTIVKIFNTNHAFCLETEKGAEIVVHMGIDTVALEGKGFKRLVEEGAQVSAGQPILEMDLDYLNANARSMISPVVCSNIDDFSGLIIKAQGHIVAGQTPLYEIKK

Each molecule was assayed against T1, FruA (fructose PTS Enzyme IIC-IIB-IIB') fused to the T25 domain (pKNT25-fruA) (E. coli) (UniProt P20966) (assay: two-hybrid; bacterial adenyl cyclase two-hybrid (BACTH, Euromedex EUK001); one protein fused N-terminal of T18 (pUT18), the other N-terminal of T25 (pKNT25); co-transformed into E. coli BTH101 deleted for cyaA; MacConkey agar with maltose, Kn, Ap and IPTG, 30°C up to 48 h; red colonies indicate interaction).
T1 sequence: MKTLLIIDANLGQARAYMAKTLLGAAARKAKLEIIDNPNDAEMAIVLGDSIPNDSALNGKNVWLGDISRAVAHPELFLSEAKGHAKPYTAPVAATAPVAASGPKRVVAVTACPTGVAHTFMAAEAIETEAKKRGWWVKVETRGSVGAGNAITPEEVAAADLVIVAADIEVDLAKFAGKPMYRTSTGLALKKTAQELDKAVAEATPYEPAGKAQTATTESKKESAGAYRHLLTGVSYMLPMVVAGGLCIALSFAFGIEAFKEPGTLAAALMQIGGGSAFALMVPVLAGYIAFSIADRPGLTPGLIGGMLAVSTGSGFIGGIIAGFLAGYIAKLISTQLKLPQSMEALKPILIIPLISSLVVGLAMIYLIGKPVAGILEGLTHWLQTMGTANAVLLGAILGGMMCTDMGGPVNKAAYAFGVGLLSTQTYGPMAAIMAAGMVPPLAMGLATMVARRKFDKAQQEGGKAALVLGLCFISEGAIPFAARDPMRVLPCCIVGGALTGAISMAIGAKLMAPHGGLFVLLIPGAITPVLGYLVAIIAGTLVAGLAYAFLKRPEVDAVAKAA
In the case of “MtlA (mannitol PTS Enzyme IIC-IIB-IIA) fused to the T18 domain (pUT18-mtlA) (from UniProt P00550 1-637)”, the binding is reported as “binds”. In the case of B1, the binding is reported as “binds”. For B2, the binding was “binds”. For B3, the binding was “binds”. For B4, the binding was “binds”.

What follows are molecules tested against T2, FruB (fructose PTS IIA-FPr) fused to the T18 domain (pUT18-fruB) (E. coli) (UniProt P69811) in the same assay as above.
T2 sequence: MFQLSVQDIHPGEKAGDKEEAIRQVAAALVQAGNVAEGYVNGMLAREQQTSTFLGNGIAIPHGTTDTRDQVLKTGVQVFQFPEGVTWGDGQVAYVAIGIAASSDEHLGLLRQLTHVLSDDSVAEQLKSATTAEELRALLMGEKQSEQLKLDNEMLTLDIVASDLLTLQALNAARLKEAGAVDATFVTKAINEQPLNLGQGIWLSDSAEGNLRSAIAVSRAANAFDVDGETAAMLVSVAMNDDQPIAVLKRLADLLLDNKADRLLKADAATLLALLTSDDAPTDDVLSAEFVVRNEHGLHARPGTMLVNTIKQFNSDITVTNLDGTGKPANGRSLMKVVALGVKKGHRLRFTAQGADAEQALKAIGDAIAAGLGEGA
“MtlA (mannitol PTS Enzyme IIC-IIB-IIA) fused to the T25 domain (pKNT25-mtlA) (from UniProt P00550 1-637)” was tested, and the binding was “binds”. For B5, the binding was “binds”.
